{"source": "PubChem BioAssay AID686938, Drosophila RNAi Screening Center, 2013", "test": "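Fly genes required for calcium entry once internal stores are emptied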 (primary screen)", "cell system": "Drosophila S2R+ cells", "reagent": "long dsRNA against Drosophila genes, about 0.25 µg dsRNA per well, roughly 10,000 cells", "duration": "5 days of knock-down before the calcium assay", "challenge": "thapsigargin (SERCA pump blocker) to empty calcium stores; entry signal taken 4 min after adding it", "measurement": "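Duplicate raw fluo-4 intensities per well from a plate reader, at rest and four minutes after thapsigargin emptied calcium stores; entry-to-rest ratio filled for only some wells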", "direction": "calcium entry signal: higher = stronger calcium signal after store depletion; resting calcium signal: higher = higher resting calcium signal", "units": "calcium entry signal in fluorescence units; resting calcium signal in fluorescence units", "hit rule": "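Hit if the duplicate-averaged plate z-score for entry over resting signal is under −3; wells with weak total dye signal (Fmax z < −2) or more than 5 off-targets removed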", "calls": "active = strongly reduced calcium entry; inactive = no strong reduction", "note": "In all, the deposit lists about 23,000 reagents; shown is an unselected part of those that have a named target and a result. In the full data, 75 (0.33%) got an active call. 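Raw plate signals without normalisation; calls rest on plate z-scores that were not deposited; ratio present for only 364 wells.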 A plus sign joins genes that one reagent is predicted to hit. No sequences are given here. Not stated in the record: the dose of the treatment."}
The first 2 entries, ahead of the listing:
{"gene knocked down": "CG7916 (GeneID 34800)", "amplicon": "DRSC01901", "calcium entry signal, replicate 1": 4.91e7, "calcium entry signal, replicate 2": 3.06e7, "resting calcium signal, replicate 1": 2.19e7, "resting calcium signal, replicate 2": 1.46e7, "activity call": "inactive"}
{"gene knocked down": "CG4666 (GeneID 31541)", "amplicon": "DRSC18379", "calcium entry signal, replicate 1": 3.68e7, "calcium entry signal, replicate 2": 4.56e7, "resting calcium signal, replicate 1": 1.78e7, "resting calcium signal, replicate 2": 2.09e7, "activity call": "inactive"}

The listing, from the first entry:
{"gene knocked down": "CG7916 (GeneID 34800)", "amplicon": "DRSC01901", "calcium entry signal, replicate 1": 4.91e7, "calcium entry signal, replicate 2": 3.06e7, "resting calcium signal, replicate 1": 2.19e7, "resting calcium signal, replicate 2": 1.46e7, "activity call": "inactive"}
{"gene knocked down": "CG4666 (GeneID 31541)", "amplicon": "DRSC18379", "calcium entry signal, replicate 1": 3.68e7, "calcium entry signal, replicate 2": 4.56e7, "resting calcium signal, replicate 1": 1.78e7, "resting calcium signal, replicate 2": 2.09e7, "activity call": "inactive"}
{"gene knocked down": "CG9801 (GeneID 41044)", "amplicon": "DRSC16568", "calcium entry signal, replicate 1": 3.23e7, "calcium entry signal, replicate 2": 3.79e7, "resting calcium signal, replicate 1": 1.45e7, "resting calcium signal, replicate 2": 1.59e7, "activity call": "inactive"}
{"gene knocked down": "Xbp1 (GeneID 44226)", "amplicon": "DRSC04553", "calcium entry signal, replicate 1": 6.13e7, "calcium entry signal, replicate 2": 3.34e7, "resting calcium signal, replicate 1": 2.88e7, "resting calcium signal, replicate 2": 1.65e7, "activity call": "inactive"}
{"gene knocked down": "Xbp1 (GeneID 44226)", "amplicon": "DRSC21624", "calcium entry signal, replicate 1": 3.73e7, "calcium entry signal, replicate 2": 3.71e7, "resting calcium signal, replicate 1": 2.00e7, "resting calcium signal, replicate 2": 1.66e7, "activity call": "inactive"}
{"gene knocked down": "CG5412 (GeneID 42434)", "amplicon": "DRSC15796", "calcium entry signal, replicate 1": 3.56e7, "calcium entry signal, replicate 2": 3.47e7, "resting calcium signal, replicate 1": 1.65e7, "resting calcium signal, replicate 2": 1.54e7, "activity call": "inactive"}
{"gene knocked down": "intr (GeneID 43397)", "amplicon": "DRSC14528", "calcium entry signal, replicate 1": 4.41e7, "calcium entry signal, replicate 2": 4.41e7, "resting calcium signal, replicate 1": 1.92e7, "resting calcium signal, replicate 2": 2.15e7, "activity call": "inactive"}
{"gene knocked down": "CG7744 (GeneID 37239)", "amplicon": "DRSC07036", "calcium entry signal, replicate 1": 3.05e7, "calcium entry signal, replicate 2": 2.39e7, "resting calcium signal, replicate 1": 1.46e7, "resting calcium signal, replicate 2": 1.34e7, "activity call": "inactive"}
{"gene knocked down": "Irp-1A (GeneID 42689)", "amplicon": "DRSC16719", "calcium entry signal, replicate 1": 5.09e7, "calcium entry signal, replicate 2": 5.43e7, "resting calcium signal, replicate 1": 2.41e7, "resting calcium signal, replicate 2": 2.45e7, "activity call": "inactive"}
{"gene knocked down": "Tsp42Eb + CG30160", "amplicon": "DRSC04961", "calcium entry signal, replicate 1": 1.94e7, "calcium entry signal, replicate 2": 2.46e7, "resting calcium signal, replicate 1": 1.01e7, "resting calcium signal, replicate 2": 1.08e7, "activity call": "inactive"}
{"gene knocked down": "Tsp42Eb + CG30160", "amplicon": "DRSC06791", "calcium entry signal, replicate 1": 2.71e7, "calcium entry signal, replicate 2": 3.39e7, "resting calcium signal, replicate 1": 1.31e7, "resting calcium signal, replicate 2": 1.44e7, "activity call": "inactive"}
{"gene knocked down": "msl-2 (GeneID 33565)", "amplicon": "DRSC00829", "calcium entry signal, replicate 1": 3.45e7, "resting calcium signal, replicate 1": 2.19e7, "activity call": "inactive"}
{"gene knocked down": "Mipp2 (GeneID 31544)", "amplicon": "DRSC18682", "calcium entry signal, replicate 1": 3.41e7, "calcium entry signal, replicate 2": 3.09e7, "resting calcium signal, replicate 1": 1.51e7, "resting calcium signal, replicate 2": 1.43e7, "activity call": "inactive"}
{"gene knocked down": "TMEM216 (GeneID 41035)", "amplicon": "DRSC16378", "calcium entry signal, replicate 1": 4.50e7, "calcium entry signal, replicate 2": 4.05e7, "resting calcium signal, replicate 1": 2.28e7, "resting calcium signal, replicate 2": 1.80e7, "activity call": "inactive"}
{"gene knocked down": "mei-41 (GeneID 32608)", "amplicon": "DRSC20350", "calcium entry signal, replicate 1": 2.37e7, "calcium entry signal, replicate 2": 2.20e7, "resting calcium signal, replicate 1": 1.26e7, "resting calcium signal, replicate 2": 9.96e6, "activity call": "inactive"}
{"gene knocked down": "CG18659 (GeneID 35929)", "amplicon": "DRSC06784", "calcium entry signal, replicate 1": 7.28e7, "calcium entry signal, replicate 2": 4.59e7, "resting calcium signal, replicate 1": 3.94e7, "resting calcium signal, replicate 2": 2.00e7, "activity call": "inactive"}
{"gene knocked down": "TrxT (GeneID 31443)", "amplicon": "DRSC22182", "calcium entry signal, replicate 1": 4.14e7, "calcium entry signal, replicate 2": 7.01e7, "resting calcium signal, replicate 1": 1.98e7, "resting calcium signal, replicate 2": 3.36e7, "activity call": "inactive"}
{"gene knocked down": "TrxT (GeneID 31443)", "amplicon": "DRSC23117", "calcium entry signal, replicate 1": 3.42e7, "calcium entry signal, replicate 2": 3.77e7, "resting calcium signal, replicate 1": 1.67e7, "resting calcium signal, replicate 2": 1.67e7, "activity call": "inactive"}
{"gene knocked down": "CG30196 (GeneID 37595)", "amplicon": "DRSC04156", "calcium entry signal, replicate 1": 3.14e7, "calcium entry signal, replicate 2": 4.39e7, "resting calcium signal, replicate 1": 1.71e7, "resting calcium signal, replicate 2": 2.04e7, "activity call": "inactive"}
{"gene knocked down": "CG15760 (GeneID 32324)", "amplicon": "DRSC19725", "calcium entry signal, replicate 1": 3.56e7, "calcium entry signal, replicate 2": 4.35e7, "resting calcium signal, replicate 1": 1.80e7, "resting calcium signal, replicate 2": 2.18e7, "activity call": "inactive"}
{"gene knocked down": "Gprk1 (GeneID 3355013)", "amplicon": "DRSC20732", "calcium entry signal, replicate 1": 2.88e7, "calcium entry signal, replicate 2": 4.18e7, "resting calcium signal, replicate 1": 1.35e7, "resting calcium signal, replicate 2": 1.84e7, "activity call": "inactive"}
{"gene knocked down": "Gprk1 (GeneID 3355013)", "amplicon": "DRSC20916", "calcium entry signal, replicate 1": 3.86e7, "calcium entry signal, replicate 2": 2.65e7, "resting calcium signal, replicate 1": 1.54e7, "resting calcium signal, replicate 2": 1.34e7, "activity call": "inactive"}
